Binding data for one substance are collected here from article PMC8906905.

The chains behind the UniProt entries cited, without tags or fusion partners. Where a name states a change or a piece, a line headed by the entry shows the natural chain unless it says otherwise.
UniProt P05556: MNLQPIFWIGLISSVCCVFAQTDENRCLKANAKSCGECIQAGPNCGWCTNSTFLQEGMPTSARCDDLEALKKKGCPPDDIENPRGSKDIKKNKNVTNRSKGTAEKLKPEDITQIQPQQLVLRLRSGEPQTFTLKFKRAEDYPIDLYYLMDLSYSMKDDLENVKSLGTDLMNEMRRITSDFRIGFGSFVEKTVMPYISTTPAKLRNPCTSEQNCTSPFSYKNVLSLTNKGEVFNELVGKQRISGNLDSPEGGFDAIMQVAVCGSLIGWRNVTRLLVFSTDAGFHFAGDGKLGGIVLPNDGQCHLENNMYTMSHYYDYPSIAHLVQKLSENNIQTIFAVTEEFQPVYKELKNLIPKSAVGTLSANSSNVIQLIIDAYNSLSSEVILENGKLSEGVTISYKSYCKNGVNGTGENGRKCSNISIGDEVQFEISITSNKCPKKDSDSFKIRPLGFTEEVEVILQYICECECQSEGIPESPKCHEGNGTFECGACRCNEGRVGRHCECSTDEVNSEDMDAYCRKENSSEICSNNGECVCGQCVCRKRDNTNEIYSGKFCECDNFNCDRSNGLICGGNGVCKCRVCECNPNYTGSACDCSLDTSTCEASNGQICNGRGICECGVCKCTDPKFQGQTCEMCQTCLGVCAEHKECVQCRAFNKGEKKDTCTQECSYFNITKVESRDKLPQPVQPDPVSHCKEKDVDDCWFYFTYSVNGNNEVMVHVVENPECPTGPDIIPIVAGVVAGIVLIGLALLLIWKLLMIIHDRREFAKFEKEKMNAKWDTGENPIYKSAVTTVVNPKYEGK

For the test, the target named is T1, FLAG-Tspan9, transfected in HEK 293T cells (human) (UniProt O75954).
T1 sequence: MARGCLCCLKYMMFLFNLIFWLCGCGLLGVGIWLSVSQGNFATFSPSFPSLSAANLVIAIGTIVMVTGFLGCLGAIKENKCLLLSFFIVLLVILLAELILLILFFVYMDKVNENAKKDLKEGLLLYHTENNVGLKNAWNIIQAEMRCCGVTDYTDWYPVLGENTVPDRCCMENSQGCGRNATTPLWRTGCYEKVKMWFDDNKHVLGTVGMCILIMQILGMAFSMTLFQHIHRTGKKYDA
The experiment in a line: affinity purification with mass spectrometry; HEK 293T cells transfected with FLAG-Tspan9 or FLAG empty vector, 48 h, immunoprecipitated with anti-FLAG M2 agarose beads, interacting proteins identified by mass spectrometry.

Results are given in words; binding and its absence hold for the method and conditions named. In cells and extracts the contact can be indirect. A yes stands for co-enrichment or nearness to the bait. Other partners may have been found. Sequences can lack the tags named with a protein.

In the case of “integrin β1, endogenous in HEK 293T cells (from UniProt P05556 21-798) (receptor)”, the binding entry is “binds”.
